Measurements taken from publication PMC4721963.
Results are given in words; binding and its absence hold for the method and conditions named. Binding seen in cells or lysates may run through a third protein. Here binding means that the protein was enriched with, or labelled near, the bait; the list need not be complete. Blank lines part the entries; values can stand above or below the molecule they belong to.

Amino acid sequences for entries named in this document (tags omitted).
UniProt Q16531: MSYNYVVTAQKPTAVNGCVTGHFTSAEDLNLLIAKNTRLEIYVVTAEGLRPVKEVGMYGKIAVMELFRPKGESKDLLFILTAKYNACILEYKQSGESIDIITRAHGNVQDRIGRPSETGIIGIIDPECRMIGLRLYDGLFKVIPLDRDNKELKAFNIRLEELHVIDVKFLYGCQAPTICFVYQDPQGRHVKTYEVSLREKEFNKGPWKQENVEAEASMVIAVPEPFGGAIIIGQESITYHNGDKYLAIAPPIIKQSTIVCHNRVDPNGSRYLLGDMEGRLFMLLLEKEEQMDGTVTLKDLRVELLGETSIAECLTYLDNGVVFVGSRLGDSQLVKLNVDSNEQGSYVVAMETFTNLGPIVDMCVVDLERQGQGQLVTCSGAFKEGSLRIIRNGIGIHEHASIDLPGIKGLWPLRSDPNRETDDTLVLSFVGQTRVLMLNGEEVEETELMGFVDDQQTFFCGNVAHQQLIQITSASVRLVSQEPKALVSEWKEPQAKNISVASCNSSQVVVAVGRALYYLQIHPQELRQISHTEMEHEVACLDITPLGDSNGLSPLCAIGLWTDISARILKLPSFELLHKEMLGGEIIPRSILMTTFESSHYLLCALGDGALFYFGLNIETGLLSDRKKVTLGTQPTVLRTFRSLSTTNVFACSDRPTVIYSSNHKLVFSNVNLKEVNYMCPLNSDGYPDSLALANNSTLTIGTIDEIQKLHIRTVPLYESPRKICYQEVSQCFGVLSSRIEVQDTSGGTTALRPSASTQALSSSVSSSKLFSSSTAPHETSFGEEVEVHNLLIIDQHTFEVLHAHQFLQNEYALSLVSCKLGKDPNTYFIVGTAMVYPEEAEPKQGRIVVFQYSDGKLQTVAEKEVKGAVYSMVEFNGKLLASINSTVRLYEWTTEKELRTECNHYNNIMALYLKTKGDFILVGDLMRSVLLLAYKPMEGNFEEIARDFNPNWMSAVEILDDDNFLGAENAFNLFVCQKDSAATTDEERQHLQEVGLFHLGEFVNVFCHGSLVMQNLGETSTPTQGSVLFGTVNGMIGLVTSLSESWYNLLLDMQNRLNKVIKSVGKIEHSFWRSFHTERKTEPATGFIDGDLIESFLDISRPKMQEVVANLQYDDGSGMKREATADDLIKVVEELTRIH
UniProt Q13620: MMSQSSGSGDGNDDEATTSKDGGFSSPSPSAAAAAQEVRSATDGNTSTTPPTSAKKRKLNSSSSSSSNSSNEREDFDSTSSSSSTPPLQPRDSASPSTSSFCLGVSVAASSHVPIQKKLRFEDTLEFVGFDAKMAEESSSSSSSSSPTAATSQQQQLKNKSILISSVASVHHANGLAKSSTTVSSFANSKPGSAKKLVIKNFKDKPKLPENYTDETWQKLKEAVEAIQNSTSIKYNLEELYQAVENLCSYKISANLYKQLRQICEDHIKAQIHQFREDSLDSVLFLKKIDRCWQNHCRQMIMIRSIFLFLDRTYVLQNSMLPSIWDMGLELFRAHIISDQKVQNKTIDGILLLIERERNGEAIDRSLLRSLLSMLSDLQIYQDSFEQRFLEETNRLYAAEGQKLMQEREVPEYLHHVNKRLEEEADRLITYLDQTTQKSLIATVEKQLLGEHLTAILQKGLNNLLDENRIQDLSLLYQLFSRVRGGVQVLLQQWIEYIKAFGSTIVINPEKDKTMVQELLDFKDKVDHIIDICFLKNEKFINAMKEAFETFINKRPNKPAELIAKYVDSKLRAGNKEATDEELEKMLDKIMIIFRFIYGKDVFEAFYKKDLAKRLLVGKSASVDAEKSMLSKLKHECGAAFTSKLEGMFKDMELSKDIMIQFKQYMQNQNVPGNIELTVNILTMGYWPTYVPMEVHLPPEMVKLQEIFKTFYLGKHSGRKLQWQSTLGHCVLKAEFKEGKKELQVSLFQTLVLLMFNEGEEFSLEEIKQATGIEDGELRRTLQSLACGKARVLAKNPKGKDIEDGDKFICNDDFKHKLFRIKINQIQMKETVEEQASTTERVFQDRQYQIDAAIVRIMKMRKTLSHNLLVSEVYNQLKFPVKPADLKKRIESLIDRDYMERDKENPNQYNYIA
UniProt Q8N7N5: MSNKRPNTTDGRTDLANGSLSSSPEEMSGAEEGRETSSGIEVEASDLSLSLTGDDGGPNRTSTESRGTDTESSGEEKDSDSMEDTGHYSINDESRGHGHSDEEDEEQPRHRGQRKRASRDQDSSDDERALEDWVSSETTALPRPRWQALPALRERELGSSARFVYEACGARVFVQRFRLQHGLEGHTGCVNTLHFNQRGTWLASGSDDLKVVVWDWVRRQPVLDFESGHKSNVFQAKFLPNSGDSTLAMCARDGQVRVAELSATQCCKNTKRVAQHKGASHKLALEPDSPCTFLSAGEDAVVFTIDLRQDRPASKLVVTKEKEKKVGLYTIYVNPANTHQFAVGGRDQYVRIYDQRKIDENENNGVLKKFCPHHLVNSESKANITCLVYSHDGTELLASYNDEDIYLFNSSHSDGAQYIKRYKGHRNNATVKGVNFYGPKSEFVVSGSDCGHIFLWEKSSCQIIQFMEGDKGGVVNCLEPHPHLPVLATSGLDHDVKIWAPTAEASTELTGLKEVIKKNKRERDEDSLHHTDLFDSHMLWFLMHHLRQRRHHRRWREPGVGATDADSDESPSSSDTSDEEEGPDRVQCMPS

Columns and labels:
[1] = molecular target: DDB1 in tandem with HA/Flag tags (pCDNA-HA-Flag-DDB1), transiently expressed in 293T (human) (UniProt Q16531); assay: affinity purification with mass spectrometry; HA-Flag-DDB1 transfected in 293T, 48 h, 10 uM MG132 for 4 h; lysis in 100 mM Tris-HCl pH 7.5, 150 mM NaCl, 1% Triton-X100, 1 mM EDTA, 2 mM MgCl2; tagged protein purified, trypsin, LC-MS/MS
[2] = molecular target: DDB1 in tandem with StrepII/Flag tags (pBS31-N-SF-DDB1), doxycycline-inducible in ESC (human) (UniProt Q16531); assay: affinity purification with mass spectrometry; StrepII/Flag-DDB1 in ESC induced with 2 uM doxycycline for 3 days, 10 uM MG132 for 2 h; lysis in 100 mM Tris-HCl pH 7.5, 150 mM NaCl, 1% Triton-X100, 1 mM EDTA, 2 mM MgCl2; bound to StrepTactin beads, eluted, trypsin, LC-MS/MS
[3] = molecular target: DDB1 in tandem with Strep/Flag tags (pMIG-N-SF-DDB1), stably transduced in HL60 (human) (UniProt Q16531); assay: affinity purification with mass spectrometry; Strep/Flag-DDB1 stably transduced in HL-60; lysis in 100 mM Tris-HCl pH 7.5, 150 mM NaCl, 1% Triton-X100, 1 mM EDTA, 2 mM MgCl2; bound to StrepTactin beads, eluted, trypsin, LC-MS/MS

- binding [1]: binds
Molecule: CUL4B (endogenous in 293T) (from UniProt Q13620 1-913)

- binding [2]: binds
Molecule: DCAF8 (endogenous in ESC) (from UniProt Q8N7N5 1-591)

- binding [3]: binds
B1: DCAF7 (endogenous in HL60) (protein, UniProt P61962 1-342)
chain: MSLHGKRKEIYKYEAPWTVYAMNWSVRPDKRFRLALGSFVEEYNNKVQLVGLDEESSEFICRNTFDHPYPTTKLMWIPDTKGVYPDLLATSGDYLRVWRVGETETRLECLLNNNKNSDFCAPLTSFDWNEVDPYLLGTSSIDTTCTIWGLETGQVLGRVNLVSGHVKTQLIAHDKEVYDIAFSRAGGGRDMFASVGADGSVRMFDLRHLEHSTIIYEDPQHHPLLRLCWNKQDPNYLATMAMDGMEVVILDVRVPCTPVARLNNHRACVNGIAWAPHSSCHICTAADDHQALIWDIQQMPRAIEDPILAYTAEGEINNVQWASTQPDWIAICYNNCLEILRV
